The text below walks through data of article PMC7699536.

The chains behind the UniProt entries cited, without tags or fusion partners.
UniProt O43707: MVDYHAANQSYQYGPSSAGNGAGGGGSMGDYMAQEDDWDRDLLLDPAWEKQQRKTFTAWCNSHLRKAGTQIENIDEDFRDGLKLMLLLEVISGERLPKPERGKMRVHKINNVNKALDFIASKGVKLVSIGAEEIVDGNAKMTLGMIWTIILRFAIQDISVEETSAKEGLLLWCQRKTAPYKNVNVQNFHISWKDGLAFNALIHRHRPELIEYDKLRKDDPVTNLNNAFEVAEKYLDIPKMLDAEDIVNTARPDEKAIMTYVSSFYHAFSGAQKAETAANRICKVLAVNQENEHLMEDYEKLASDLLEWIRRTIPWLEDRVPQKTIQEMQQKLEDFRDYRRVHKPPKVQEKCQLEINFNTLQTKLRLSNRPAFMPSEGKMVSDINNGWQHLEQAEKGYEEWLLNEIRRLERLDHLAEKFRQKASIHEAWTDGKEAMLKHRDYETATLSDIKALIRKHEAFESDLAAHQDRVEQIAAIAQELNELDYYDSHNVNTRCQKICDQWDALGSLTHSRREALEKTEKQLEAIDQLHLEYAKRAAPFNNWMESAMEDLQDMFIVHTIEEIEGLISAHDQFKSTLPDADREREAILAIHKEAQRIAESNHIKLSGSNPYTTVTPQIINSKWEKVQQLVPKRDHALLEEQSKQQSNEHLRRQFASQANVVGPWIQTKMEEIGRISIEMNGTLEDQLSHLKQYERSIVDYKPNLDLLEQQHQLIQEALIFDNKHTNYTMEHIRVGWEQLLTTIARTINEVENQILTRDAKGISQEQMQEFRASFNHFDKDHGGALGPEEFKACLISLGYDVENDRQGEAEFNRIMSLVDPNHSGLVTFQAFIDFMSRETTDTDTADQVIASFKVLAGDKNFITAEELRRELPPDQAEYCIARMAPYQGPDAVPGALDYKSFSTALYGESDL

The target of assay [1] is T1, FLAG-SEPT14^A123T (p.Ala123Thr), expressed in HeLa cells (human) (UniProt Q6ZU15).
T1 sequence: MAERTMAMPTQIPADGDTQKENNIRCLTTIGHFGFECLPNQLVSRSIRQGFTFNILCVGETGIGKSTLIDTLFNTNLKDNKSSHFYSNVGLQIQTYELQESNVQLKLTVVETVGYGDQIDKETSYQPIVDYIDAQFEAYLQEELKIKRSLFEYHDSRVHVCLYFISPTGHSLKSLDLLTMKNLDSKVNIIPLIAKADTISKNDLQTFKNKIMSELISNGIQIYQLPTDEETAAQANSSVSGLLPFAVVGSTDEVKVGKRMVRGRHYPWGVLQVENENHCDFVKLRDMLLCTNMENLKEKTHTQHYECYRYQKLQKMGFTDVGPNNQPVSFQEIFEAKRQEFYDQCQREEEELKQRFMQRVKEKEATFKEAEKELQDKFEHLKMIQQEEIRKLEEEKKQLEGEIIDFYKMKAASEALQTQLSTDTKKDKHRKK
Nature of the assay: co-IP; lysates of HeLa cells transfected with pFLAG-SEPT14 (WT or mutant), IP with FLAG antibody or control IgG, immunoblot with FLAG and ACTN4 antibodies. (Immunoblotting shows a protein as a band on a membrane.)

In assay [2] the target is T2, FLAG-SEPT14 (wild type), expressed in HeLa cells (human) (UniProt Q6ZU15).
T2 sequence: T1 sequence with T123A
The description is as above.

Assay [3] addresses T3, FLAG-SEPT14^I333T (p.Ile333Thr), expressed in HeLa cells (human) (UniProt Q6ZU15).
T3 sequence: T1 sequence with T123A, I333T
The assay is described as above.

The target of assay [4] is T4, FLAG-SEPT14 (wild type), expressed in NT2D1 cells (human) (UniProt Q6ZU15).
T4 sequence: T1 sequence with T123A
Nature of the assay: co-IP; lysate of NT2D1 cells transfected with pFLAG-SEPT14, IP with FLAG antibody or control IgG, immunoblot with ACTN4 and FLAG antibodies.

Numbering of substitutions follows the chain as printed. No constants are given. Whether binding was seen depends on the method and setting. In cells and extracts the contact can be indirect. Some binding calls cover weakened binding; strength is not graded here. Tags and fused reporters may be left off the sequences shown.

Take “ACTN4 (actinin, alpha 4), endogenous in HeLa cells (from UniProt O43707 1-911)”: the binding entry in assay [1], in assay [2] and in assay [3] was “binds” throughout.

Take “ACTN4 (actinin, alpha 4), endogenous in NT2D1 cells (from UniProt O43707 1-911)”: in assay [4], the binding result is “binds”.
